Here are results for seven molecules from paper doi:10.1101/2020.02.05.935544.

Sequences of proteins named here, by UniProt entry; tags and fusion partners are left off.
UniProt Q9Z2D8: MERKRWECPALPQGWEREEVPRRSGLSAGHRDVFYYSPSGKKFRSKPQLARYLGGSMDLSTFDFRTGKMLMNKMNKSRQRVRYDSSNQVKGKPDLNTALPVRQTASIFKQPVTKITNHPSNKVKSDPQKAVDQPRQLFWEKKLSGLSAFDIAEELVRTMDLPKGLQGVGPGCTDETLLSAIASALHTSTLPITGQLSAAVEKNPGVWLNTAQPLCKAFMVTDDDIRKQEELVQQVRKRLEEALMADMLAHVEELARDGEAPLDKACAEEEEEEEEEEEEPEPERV
UniProt O95983: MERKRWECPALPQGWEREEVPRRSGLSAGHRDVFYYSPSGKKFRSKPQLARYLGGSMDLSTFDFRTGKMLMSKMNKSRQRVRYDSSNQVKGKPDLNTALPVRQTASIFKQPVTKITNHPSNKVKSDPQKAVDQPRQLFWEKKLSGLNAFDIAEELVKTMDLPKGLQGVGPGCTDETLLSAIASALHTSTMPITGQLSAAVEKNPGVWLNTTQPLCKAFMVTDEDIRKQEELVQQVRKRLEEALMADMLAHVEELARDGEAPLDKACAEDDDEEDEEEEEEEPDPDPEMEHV
UniProt B1AWL2: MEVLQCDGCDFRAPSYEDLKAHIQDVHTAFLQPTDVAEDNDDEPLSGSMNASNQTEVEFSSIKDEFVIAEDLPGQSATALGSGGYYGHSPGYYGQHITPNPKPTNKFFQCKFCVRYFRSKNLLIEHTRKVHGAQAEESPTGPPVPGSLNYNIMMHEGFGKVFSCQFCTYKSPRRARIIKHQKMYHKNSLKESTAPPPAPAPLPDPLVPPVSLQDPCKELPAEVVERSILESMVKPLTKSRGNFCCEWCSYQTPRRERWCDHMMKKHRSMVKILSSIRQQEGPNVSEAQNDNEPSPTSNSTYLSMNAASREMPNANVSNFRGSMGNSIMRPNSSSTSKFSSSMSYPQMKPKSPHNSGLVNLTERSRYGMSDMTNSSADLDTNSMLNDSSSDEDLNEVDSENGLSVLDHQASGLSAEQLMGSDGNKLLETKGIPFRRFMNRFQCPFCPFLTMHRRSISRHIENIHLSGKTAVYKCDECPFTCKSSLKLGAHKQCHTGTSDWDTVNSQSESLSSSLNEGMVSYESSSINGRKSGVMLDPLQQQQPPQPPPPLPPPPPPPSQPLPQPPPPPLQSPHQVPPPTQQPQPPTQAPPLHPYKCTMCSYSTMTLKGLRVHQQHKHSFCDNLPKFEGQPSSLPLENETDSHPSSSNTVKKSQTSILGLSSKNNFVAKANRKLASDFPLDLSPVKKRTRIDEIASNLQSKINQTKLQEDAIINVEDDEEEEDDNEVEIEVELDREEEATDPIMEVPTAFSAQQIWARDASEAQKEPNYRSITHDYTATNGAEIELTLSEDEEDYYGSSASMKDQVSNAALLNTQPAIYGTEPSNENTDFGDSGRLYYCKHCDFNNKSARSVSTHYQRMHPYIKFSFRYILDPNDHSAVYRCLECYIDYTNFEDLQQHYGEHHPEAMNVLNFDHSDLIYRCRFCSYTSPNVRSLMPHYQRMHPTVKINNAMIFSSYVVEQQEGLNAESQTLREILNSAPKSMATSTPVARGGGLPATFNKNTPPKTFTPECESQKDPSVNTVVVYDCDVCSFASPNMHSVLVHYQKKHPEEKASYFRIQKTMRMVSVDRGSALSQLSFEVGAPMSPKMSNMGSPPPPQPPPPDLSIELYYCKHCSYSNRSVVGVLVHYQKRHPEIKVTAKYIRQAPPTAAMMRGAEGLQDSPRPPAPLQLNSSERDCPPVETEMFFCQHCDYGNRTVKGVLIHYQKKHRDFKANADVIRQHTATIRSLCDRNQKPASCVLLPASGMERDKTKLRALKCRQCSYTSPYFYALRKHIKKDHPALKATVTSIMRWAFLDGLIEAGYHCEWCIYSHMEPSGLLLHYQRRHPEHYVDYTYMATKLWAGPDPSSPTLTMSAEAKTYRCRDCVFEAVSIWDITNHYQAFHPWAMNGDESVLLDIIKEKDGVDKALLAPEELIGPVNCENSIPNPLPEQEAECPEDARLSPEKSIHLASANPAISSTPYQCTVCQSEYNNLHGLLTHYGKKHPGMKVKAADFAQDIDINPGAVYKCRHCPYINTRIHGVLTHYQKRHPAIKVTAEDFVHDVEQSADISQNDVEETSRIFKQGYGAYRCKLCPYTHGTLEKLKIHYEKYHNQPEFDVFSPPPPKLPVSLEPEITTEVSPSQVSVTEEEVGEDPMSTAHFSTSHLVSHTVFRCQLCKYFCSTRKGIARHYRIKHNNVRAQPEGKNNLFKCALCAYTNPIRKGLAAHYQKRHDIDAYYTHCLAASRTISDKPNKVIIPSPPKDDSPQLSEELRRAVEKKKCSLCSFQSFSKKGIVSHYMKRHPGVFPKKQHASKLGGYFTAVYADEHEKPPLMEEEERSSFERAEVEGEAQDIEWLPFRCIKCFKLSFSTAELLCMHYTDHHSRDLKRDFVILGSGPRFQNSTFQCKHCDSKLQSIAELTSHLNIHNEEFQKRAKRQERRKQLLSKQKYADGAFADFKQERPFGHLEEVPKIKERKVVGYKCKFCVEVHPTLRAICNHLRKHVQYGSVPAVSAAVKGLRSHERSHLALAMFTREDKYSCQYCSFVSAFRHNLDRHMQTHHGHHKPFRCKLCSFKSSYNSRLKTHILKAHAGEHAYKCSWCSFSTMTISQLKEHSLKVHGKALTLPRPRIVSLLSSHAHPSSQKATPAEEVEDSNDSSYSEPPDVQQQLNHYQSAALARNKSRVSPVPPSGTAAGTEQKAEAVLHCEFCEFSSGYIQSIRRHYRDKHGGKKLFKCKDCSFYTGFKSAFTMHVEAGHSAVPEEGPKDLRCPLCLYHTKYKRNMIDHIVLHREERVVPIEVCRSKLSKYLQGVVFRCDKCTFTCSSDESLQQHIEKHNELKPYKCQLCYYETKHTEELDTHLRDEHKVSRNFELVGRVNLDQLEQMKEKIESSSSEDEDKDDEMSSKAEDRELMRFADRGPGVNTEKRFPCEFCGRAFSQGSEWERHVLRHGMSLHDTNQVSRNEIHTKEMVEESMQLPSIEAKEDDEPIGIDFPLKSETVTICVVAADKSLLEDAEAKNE

What all share (experiment): affinity purification with mass spectrometry
Assay [1] addresses Mbd3-3xFLAG (endogenously tagged mouse MBD3) (mouse) (UniProt Q9Z2D8).
Assay [2] has as its target MBD3-3xFLAG (endogenously tagged human MBD3) (human) (UniProt O95983).
The target of assay [3] is Mbd3-3xFLAG (endogenously tagged mouse MBD3) (mouse) (UniProt Q9Z2D8). The source holds these as a separate data set.

Like-named read-outs stand apart in the source and are kept apart here. These are yes or no findings as the source states them, for the method shown. In cells and extracts the contact can be indirect. A yes stands for co-enrichment or nearness to the bait. Other partners may have been found.

Turning to “ZNF462 (mouse) (from UniProt B1AWL2 1-2495)”, the binding result in assay [1] is given as “binds”.

B1: VRTN (human) (protein, UniProt Q9H8Y1 1-702)
chain: MTSRNQLVQKVLQELQEAVECEGLEGLIGASLEAKQVLSSFTLPTCREGGPGLQVLEVDSVALSLYPEDAPRNMLPLVCKGEGSLLFEAASMLLWGDAGLSLELRARTVVEMLLHRHYYLQGMIDSKVMLQAVRYSLCSEESPEMTSLPPATLEAIFDADVKASCFPSSFSNVWHLYALASVLQRNIYSIYPMRNLKIRPYFNRVIRPRRCDHVPSTLHIMWAGQPLTSHFFRHQYFAPVVGLEEVEAEGAPGVAPALPALAPLSSPAKTLELLNREPGLSYSHLCERYSVTKSTFYRWRRQSQEHRQKVAARFSAKHFLQDSFHRGGVVPLQQFLQRFPEISRSTYYAWKHELLGSGTCPALPPREVLGMEELEKLPEEQVAEEELECSALAVSSPGMVLMQRAKLYLEHCISLNTLVPYRCFKRRFPGISRSTYYNWRRKALRRNPSFKPAPALSAAGTPQLASVGEGAVIPWKSEAEEGAGNATGEDPPAPGELLPLRMPLSRWQRRLRRAARRQVLSGHLPFCRFRLRYPSLSPSAFWVWKSLARGWPRGLSKLQVPVPTLGKGGQEAEEKQEKEAGRDVTAVMAPPVGASSEDVEGGPSREGALQEGATAQGQPHSGPLLSQPVVAAAGGRDGRMLVMDMIATTKFKAQAKLFLQKRFQSKSFPSYKEFSALFPLTARSTYYMWKRALYDGLTLVDG
As for B1, the binding result in assay [2] is on record as “binds”.

B2: ZNF423 (mouse) (protein, UniProt Q80TS5 1-1292)
chain: MSRRKQAKPRSVKVEEGEASDFSLAWDSSVAAAGGLEGEPECDRKTSRALEDRNSVTSQEERNEDDEDVEDESIYTCDHCQQDFESLADLTDHRAHRCPGDGDDDPQLSWVASSPSSKDVASPTQMIGDGCDLGLGEEEGGTGLPYPCQFCDKSFIRLSYLKRHEQIHSDKLPFKCTFCSRLFKHKRSRDRHIKLHTGDKKYHCHECEAAFSRSDHLKIHLKTHSSSKPFKCSVCKRGFSSTSSLQSHMQAHKKNKEHLAKSEKEAKKDDFMCDYCEDTFSQTEELEKHVLTLHPQLSEKADLQCIHCPEVFVDESTLLAHIHQAHANQKHKCPMCPEQFSSVEGVYCHLDSHRQPDSSNHSVSPDPVLGSVASMSSATPDSSASVERGSTPDSTLKPLRGQKKMRDDGQSWPKVVYSCPYCSKRDFTSLAVLEIHLKTIHADKPQQSHTCQICLDSMPTLYNLNEHVRKLHKSHAYPVMQFGNISAFHCNYCPEMFADINSLQEHIRVSHCGPNANPPDGNNAFFCNQCSMGFLTESSLTEHIQQAHCSVGSTKLESPVVQPTQSFMEVYSCPYCTNSPIFGSILKLTKHIKENHKNIPLAHSKKSKAEQSPVSSDVEVSSPKRQRLSGSANSISNGEYPCNQCDLKFSNFESFQTHLKLHLELLLRKQACPQCKEDFDSQESLLQHLTVHYMTTSTHYVCESCDKQFSSVDDLQKHLLDMHTFVLYHCTLCQEVFDSKVSIQVHLAVKHSNEKKMYRCTACNWDFRKEADLQVHVKHSHLGNPAKAHKCIFCGETFSTEVELQCHITTHSKKYNCRFCSKAFHAVILLEKHLREKHCVFDAAAENGTANGVPPTSTKKAEPADLQGMLLKNPEAPNSHEASEDDVDASEPMYGCDICGAAYTMEVLLQNHRLRDHNIRPGEDDGSRKKAEFIKGSHKCNVCSRTFFSENGLREHLQTHRGPAKHYMCPICGERFPSLLTLTEHKVTHSKSLDTGTCRICKMPLQSEEEFIEHCQMHPDLRNSLTGFRCVVCMQTVTSTLELKIHGTFHMQKLAGSSAASSPNGQGLQKLYKCALCLKEFRSKQDLVRLDVNGLPYGLCAGCMARSANGQVGGLAPPEPADRPCAGLRCPECNVKFESAEDLESHMQVDHRDLTPETSGPRKGAQTSPVPRKKTYQCIKCQMTFENEREIQIHVANHMIEEGINHECKLCNQMFDSPAKLLCHLIEHSFEGMGGTFKCPVCFTVFVQANKLQQHIFAVHGQEDKIYDCSQCPQKFFFQTELQNHTMSQHAQ
Regarding B2, the binding entry in assay [3] was “binds”.

B3: BEND3 (human) (protein, UniProt Q5T5X7 1-828)
chain: MNSTEFTEDVEEVLKSITVKVETEAEDAALDCSVNSRTSEKHSVDSVLTALQDSSKRKQLVSDGLLDSVPGVKRRRLIPEALLAGMRNRENSSPCQGNGEQAGRGRSLGNVWPGEEEPCNDATTPSYKKPLYGISHKIMEKKNPPSGDLLNVYELFEKANASNSPSSLRLLNEPQKRDCGSTGAGTDNDPNIYFLIQKMFYMLNTLTSNMSQLHSKVDLLSLEVSRIKKQVSPTEMVAKFQPPPEYQLTAAELKQIVDQSLSGGDLACRLLVQLFPELFSDVDFSRGCSACGFAAKRKLESLHLQLIRNYVEVYYPSVKDTAVWQAECLPQLNDFFSRFWAQREMEDSQPSGQVASFFEAEQVDPGHFLDNKDQEEALSLDRSSTIASDHVVDTQDLTEFLDEASSPGEFAVFLLHRLFPELFDHRKLGEQYSCYGDGGKQELDPQRLQIIRNYTEIYFPDMQEEEAWLQQCAQRINDELEGLGLDAGSEGDPPRDDCYDSSSLPDDISVVKVEDSFEGERPGRRSKKIWLVPIDFDKLEIPQPDFEVPGADCLLSKEQLRSIYESSLSIGNFASRLLVHLFPELFTHENLRKQYNCSGSLGKKQLDPSRIKLIRHYVQLLYPRAKNDRVWTLEFVGKLDERCRRRDTEQRRSYQQQRKVHVPGPECRDLTSYAINPERFREEFEGPPLPPERSSKDFCKIPLDELVVPSPDFPVPSPYLLSDKEVREIVQQSLSVGNFAARLLVRLFPELFTAENLRLQYNHSGACNKKQLDPTRLRLIRHYVEAVYPVEKMEEVWHYECIPSIDERCRRPNRKKCDILKKAKKVEK
In the case of B3, in assay [2], the binding result is reported as “binds”.

B4: ZNF423 (human) (protein, UniProt Q2M1K9 1-1284)
chain: MHKKRVEEGEASDFSLAWDSSVTAAGGLEGEPECDQKTSRALEDRNSVTSQEERNEDDEDMEDESIYTCDHCQQDFESLADLTDHRAHRCPGDGDDDPQLSWVASSPSSKDVASPTQMIGDGCDLGLGEEEGGTGLPYPCQFCDKSFIRLSYLKRHEQIHSDKLPFKCTYCSRLFKHKRSRDRHIKLHTGDKKYHCHECEAAFSRSDHLKIHLKTHSSSKPFKCTVCKRGFSSTSSLQSHMQAHKKNKEHLAKSEKEAKKDDFMCDYCEDTFSQTEELEKHVLTRHPQLSEKADLQCIHCPEVFVDENTLLAHIHQAHANQKHKCPMCPEQFSSVEGVYCHLDSHRQPDSSNHSVSPDPVLGSVASMSSATPDSSASVERGSTPDSTLKPLRGQKKMRDDGQGWTKVVYSCPYCSKRDFNSLAVLEIHLKTIHADKPQQSHTCQICLDSMPTLYNLNEHVRKLHKNHAYPVMQFGNISAFHCNYCPEMFADINSLQEHIRVSHCGPNANPSDGNNAFFCNQCSMGFLTESSLTEHIQQAHCSVGSAKLESPVVQPTQSFMEVYSCPYCTNSPIFGSILKLTKHIKENHKNIPLAHSKKSKAEQSPVSSDVEVSSPKRQRLSASANSISNGEYPCNQCDLKFSNFESFQTHLKLHLELLLRKQACPQCKEDFDSQESLLQHLTVHYMTTSTHYVCESCDKQFSSVDDLQKHLLDMHTFVLYHCTLCQEVFDSKVSIQVHLAVKHSNEKKMYRCTACNWDFRKEADLQVHVKHSHLGNPAKAHKCIFCGETFSTEVELQCHITTHSKKYNCKFCSKAFHAIILLEKHLREKHCVFDAATENGTANGVPPMATKKAEPADLQGMLLKNPEAPNSHEASEDDVDASEPMYGCDICGAAYTMEVLLQNHRLRDHNIRPGEDDGSRKKAEFIKGSHKCNVCSRTFFSENGLREHLQTHRGPAKHYMCPICGERFPSLLTLTEHKVTHSKSLDTGTCRICKMPLQSEEEFIEHCQMHPDLRNSLTGFRCVVCMQTVTSTLELKIHGTFHMQKLAGSSAASSPNGQGLQKLYKCALCLKEFRSKQDLVKLDVNGLPYGLCAGCMARSANGQVGGLAPPEPADRPCAGLRCPECSVKFESAEDLESHMQVDHRDLTPETSGPRKGTQTSPVPRKKTYQCIKCQMTFENEREIQIHVANHMIEEGINHECKLCNQMFDSPAKLLCHLIEHSFEGMGGTFKCPVCFTVFVQANKLQQHIFAVHGQEDKIYDCSQCPQKFFFQTELQNHTMSQHAQ
Turning to B4, the binding result in assay [2] is listed as “binds”.

B5: PGBD3 (protein, UniProt Q8N328 1-593)
chain: MPRTLSLHEITDLLETDDSIEASAIVIQPPENATAPVSDEESGDEEGGTINNLPGSLLHTAAYLIQDGSDAESDSDDPSYAPKDDSPDEVPSTFTVQQPPPSRRRKMTKILCKWKKADLTVQPVAGRVTAPPNDFFTVMRTPTEILELFLDDEVIELIVKYSNLYACSKGVHLGLTSSEFKCFLGIIFLSGYVSVPRRRMFWEQRTDVHNVLVSAAMRRDRFETIFSNLHVADNANLDPVDKFSKLRPLISKLNERCMKFVPNETYFSFDEFMVPYFGRHGCKQFIRGKPIRFGYKFWCGATCLGYICWFQPYQGKNPNTKHEEYGVGASLVLQFSEALTEAHPGQYHFVFNNFFTSIALLDKLSSMGHQATGTVRKDHIDRVPLESDVALKKKERGTFDYRIDGKGNIVCRWNDNSVVTVASSGAGIHPLCLVSRYSQKLKKKIQVQQPNMIKVYNQFMGGVDRADENIDKYRASIRGKKWYSSPLLFCFELVLQNAWQLHKTYDEKPVDFLEFRRRVVCHYLETHGHPPEPGQKGRPQKRNIDSRYDGINHVIVKQGKQTRCAECHKNTTFRCEKCDVALHVKCSVEYHTE
Regarding B5, the binding entry in assay [2] is on record as “binds”.

B6: VRTN (mouse) (protein, UniProt Q3SYK4 1-740)
chain: MTSRDQLVQQVLRDLQEAVESEGLEGLIGAALEAKQVLSSFTLPICQKGGPGAQVLEVDSVALSLYPEDAPRNMLPLVCKGEGSLLFEATSLLLWGHTGLSLELRARTVVEMLLHRHYYLQGMIDSKVMLQAVRYSLCSEESPEMTNLSFATLEAIFDADVKATCFPTSFSNVWHLYALASILECNIYSIYPMRNIKIRPYFNRVIMPRCSTHVTSMLHIMWAGQPLTSHLFRHQYFAPVVGLEEVEADCTASLNPVPPNLGPLLPPAKTLELLNREPGLSYSHLCDRISITKSTFYRWRRQTQEHRQKVATRFSAKHFLQDSFHRGGFVPLQQFLQRFPEISRSTYYAWKHELLGSGANSALGPATPSREALAVPEVERPPGKKAAEEVGCSSLAAAMLSPPSMILMQRAKSFLEYCISLNKLVPYRCFKCRFPGISRSTYYNWRRKALRRTPSFKLSQAAFETAESLQPTDVGKETPFSLKREAGEEETGKAGSGAPLTSRGLISPKMPLSRWQRRLRRAARKQVLNGHLPFCRFRLRYPSLLPSTFWVWKSLSRRSPGMQIPSLSQRRQKPQGRQKPEGRQKPEEQQKPEGRQKPEGRQKPVEPQAMEADQNVPAMVVPPAETLPVATSPEDVPGGPSREGNIIQEAAMTQSQPHSGSLPSQTLAEAPGGSDGQVLVMDMLTTTRFKAQAKLFLQKRFQSKTFPSYKEFQALFPLTARSTYYMWKRALYEGLTLIDG
For the molecule B6, the binding entry in assay [3] is recorded as “binds”.
